Assay results from PubChem BioAssay AID624297 (National Center for Advancing Translational Sciences (NCATS), 2012).
The campaign covered roughly 340,000 compounds. About 6,200 (1.8%) were called active. Inconclusive results, whose numbers are uncertain, are shown with a selection of clear calls. The call rests on the fitted dose curve; in most records, active means well fitted activation curve with a large enough effect; inconclusive means small, poorly fitted or top-dose-only effect; inactive means no such curve, though single readings can be large or run the other way. Potencies beside an inconclusive call are fits to weak or partial responses and may not hold up.

Assay: A quantitative high throughput screen for small molecules that induce DNA re-replication in SW480 colon adenocarcinoma cells. Further: nearly all actives have a fitted effect of over 55% in size. On re-replication activation: % of control where 0% means no effect.
Settings: Hoechst DNA content imaging, 48 h; re-replication activation: at 46.1 µM (top of the series) unless noted
How it was run: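 Hoechst fluorescence of nuclei (405 nm excitation, 500-530 nm emission) measured by plate-scanning imager after 48 hr compound exposure at 37 C; re-replication scored as increased number of nuclei with elevated intensity.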
Potency means the concentration at half of the fitted maximal effect.

Compound	Potency	re-replication activation
Cc1ccccc1NCc1ccc([N+](=O)[O-])s1	inconclusive: 23.1 µM [activator, partial curve, poor fit]	
Cc1ccc(N2C(=O)N(CC(=O)Nc3ccccc3C(F)(F)F)C(=O)C2C)cc1 (stereo unspecified)		inactive: -2.13%
CC(=O)Oc1ccc(C(=O)Nc2ccccc2C(=O)N2CCCCC2)cc1	inconclusive: 0.0052 µM [activator, partial curve, poor fit]	
Cn1c(SCC(=O)N/N=C/c2cc([N+](=O)[O-])ccc2O)nnc1-c1ccccc1	inconclusive: 20.6 µM [activator, single point]	
CC(C)C[C@@H](CO)N1CCN(CCCc2ccccc2)CCC1=O		inactive: -12.2%
Cc1[nH]c2ccccc2c1C(=O)C(=O)Nc1ccc2c(c1)OCCO2		inactive: 3.79%
C=CCNc1nc(N2CCCCC2)c(C#N)c2c1CN(Cc1ccccc1)CC2	inconclusive: 25.9 µM [activator, single point]	
CCOC(=O)c1[nH]cnc1N=Nc1c(O)ccc2ccccc12	inconclusive: 16.4 µM [activator, single point]	
CCOC(=O)C1=C(C)N(CCCC(=O)O)C(=O)NC1c1ccccc1OS(=O)(=O)c1ccccc1[N+](=O)[O-] (stereo unspecified)	inconclusive: 0.116 µM [activator, full curve, poor fit]	
O=C1CC(c2cccc([N+](=O)[O-])c2)c2c(ccc3ccccc23)N1 (stereo unspecified)	inconclusive: 29.1 µM [activator, single point]	
CCCN1C(=O)C(O)(C2COC(C)(C)CC2=O)c2ccccc21 (stereo unspecified)	inconclusive: 18.4 µM [activator, single point]	
COc1ccc(C(=O)NCCc2nnc3ccc(SCC(=O)N4CCCCC4)nn23)cc1	inconclusive: 4.11 µM [activator, full curve, poor fit]	
O=C(NCCCCc1ccccc1)c1cccc(NC(=O)C2CC2)c1		inactive: 2.51%
c1ccc(-c2ccccn2)nc1	inconclusive: 0.0891 µM [activator, full curve, poor fit]	
CN1CCN(CCC(=O)N2c3ccccc3Sc3ccc(Cl)cc32)CC1		inactive: -10.3%
Cc1ccc(NC2CCCN(C(=O)C3CCCC3)C2)cc1C (stereo unspecified)		inactive: 14.8%
CCOc1ccc(C(=O)Nc2ccccc2N2CCCC2)cc1	inconclusive: 31.6 µM [activator, single point]	
Cc1nc2ccc([N+](=O)[O-])cc2c(=O)n1Cc1ccc([N+](=O)[O-])cc1	inconclusive: 6.51 µM [activator, single point]	
COC(=O)c1ccc(COc2ccc3c(c2)CCC3)o1	inconclusive: 29.1 µM [activator, single point]	
CSc1nc2ncc3c(n2n1)CC(C)(C)CC3=O	inconclusive: 29.1 µM [activator, single point]	
CC(Nc1ncnc2ccccc12)c1ccccc1 (stereo unspecified)	inconclusive: 1.3 µM [activator, single point]	
Nc1nc(Nc2cccc(Cl)c2)nc(NCc2ccco2)c1[N+](=O)[O-]	inconclusive: 16.4 µM [activator, single point]	
Cc1cc(OCC(=O)NNC(=O)c2cccnc2)cc(C)c1Cl	inconclusive: 0.0046 µM [activator, full curve, poor fit]	
COC(=O)c1c(C)cccc1C1CN=NC12Cc1ccccc1C2=O (stereo unspecified)		inactive: -4.24%

Compound	Potency	re-replication activation
Cc1nc2oc(C(=O)c3ccc(Br)cc3)c(N)c2c2c1COC(C)(C)C2	inconclusive: 3.66 µM [activator, full curve]	
COc1ccc(C2NC(=O)c3sc4nc(C)c(C(C)=O)c(-c5ccc(Cl)cc5)c4c3N2)cc1 (stereo unspecified)	inconclusive: 20.6 µM [activator, partial curve, poor fit]	
O=C(NCc1ccccc1)c1ccc2c(=O)n(CC3CCCO3)c(=S)[nH]c2c1 (stereo unspecified)		inactive: -1.5%
CO[C@H]1OC2O[C@@]3(C)CC[C@H]4[C@H](C)CC[C@@H]([C@H]1C)[C@@]24OO3 (stereo partly specified)	inconclusive: 33.5 µM [activator, single point]	
O=C(CCN1C(=O)/C(=C/c2cccs2)SC1=S)N1CCCCC1	active: 23.1 µM	
Cc1ccccc1OCC(=O)N/N=C/c1cccc2cccnc12	inconclusive: 16.4 µM [activator, single point]	
COc1ccc(-n2nc(C(=O)NCC(=O)NCCC3=CCCCC3)c3ccccc3c2=O)cc1OC	inconclusive: 9.2 µM [activator, partial curve, poor fit]	
CCc1cccc(NC(=O)c2cccc3c2C(=O)N(CC2CCCO2)C3)c1 (stereo unspecified)		inactive: -0.0039%
Cc1ccc(C)c(OCCC(=O)N2CCN(S(=O)(=O)c3cc(C)ccc3C)CC2)c1		inactive: 8.98%
COc1ccc(C(=O)/C=C/c2cn(CC(O)CN3CCN(C)CC3)c3ccccc23)cc1OC (stereo unspecified)	active: 23.1 µM	
COc1cc2c(cc1OC)C(C)=NCC2		inactive: 0.0625%
O=C(COC(=O)c1ccc([N+](=O)[O-])cc1)NCCC1=CCCCC1	inconclusive: 29.1 µM [activator, single point]	
Cc1ccc(CN2CCN(/N=C\C(Br)=C\c3ccccc3)CC2)cc1	inconclusive: 29.1 µM [activator, single point]	
N#Cc1ccc(C(=O)NC(=S)N2CCOCC2)cc1		inactive: 4.48%
CCOC(=O)C1CCCN(c2ncnc3c2cnn3-c2ccc(Cl)cc2)C1 (stereo unspecified)		inactive: -8.82%
CC(C)C(=O)N1CCN(c2nc(-c3ccccc3)c3c(c2C#N)CCCC3)CC1	inconclusive: 29.1 µM [activator, single point]	
CCOC(=O)C(C(C)=O)C(c1ccc(OC)cc1)C(C(C)=O)C(=O)OCC (stereo unspecified)		inactive: -0.109%
O=C(NCc1cccc(F)c1)c1noc2c1CCCC2	inconclusive: 29.1 µM [activator, single point]	
Oc1csc(Cc2nc(-c3ccc(Br)cc3)cs2)n1		inactive: -130%
CC(OC(=O)CN1C(=O)NC2(CCCC2)C1=O)C(=O)Nc1cccc(Cl)c1 (stereo unspecified)		inactive: 0.647%
Cc1ccc(-n2cc(CN3CCN(c4ccccn4)CC3)c(-c3ccc(F)cc3)n2)cc1	inconclusive: 20.6 µM [activator, single point]	
COc1ccc(/C=C/c2ccccc2)cc1[C@H]1[C@@H]2C=CCC[C@@]2(C)C(=O)N1Cc1ccccc1	inconclusive: 20.6 µM [activator, partial curve, poor fit]	
O=C(CN1CCC(n2nnc3cc(F)ccc32)CC1)N1CCc2ccccc2C1	inconclusive: 20.6 µM [activator, single point]	
Fc1ccc(C2c3[nH]c4ccccc4c3CCN2CCCn2cccn2)cc1 (stereo unspecified)	inconclusive: 14.6 µM [activator, single point]	

Compound	Potency	re-replication activation
CCN(CC)CCOc1ccc2c(c1)C(=O)c1cc(OCCN(CC)CC)ccc1-2	inconclusive: 33.5 µM [activator, partial curve, poor fit]	
Cc1cc(C)nc(NC2=NCC(=O)N2c2ccccc2)n1		inactive: 4.51%
Cc1ccc(NC(=O)C(C)OC(=O)CCC2CCCCC2)cc1 (stereo unspecified)	inconclusive: 18.4 µM [activator, single point]	
CCN(C(=O)c1cc2ccccc2oc1=O)c1ccccc1		inactive: -4.95% [at 9.22 µM]
CC(=O)c1nn(-c2ccc(Cl)cc2)cc1C(=O)c1ccc(C)cc1	inconclusive: 0.116 µM [activator, full curve, poor fit]	
CC(C)CC1NC(=O)N(CC(=O)Nc2cc(S(=O)(=O)N3CCOCC3)ccc2Cl)C1=O (stereo unspecified)		inactive: -1.27%
CCOc1cc(/C=C/C(=O)c2ccc(O)cc2)ccc1OCC(=O)N(C)C	inconclusive: 23.1 µM [activator, single point]	
CCC(C)(C)NC(=O)C1CCC(CNS(=O)(=O)c2cccc3nsnc23)CC1 (stereo unspecified)	inconclusive: 23.1 µM [activator, single point]	
O=C(Nc1cccnc1)c1cc(Cl)ccc1Cl		inconclusive: 45.4% [activator]
CCCN1CCN(C(=O)c2ccc(CS(=O)c3ccc(Cl)cc3)o2)CC1 (stereo unspecified)	inconclusive: 6.51 µM [activator, full curve, poor fit]	
CCn1ncc(CN2CCCC(C(=O)c3cccc(OC(C)C)c3)C2)c1C (stereo unspecified)		inactive: -0.157%
COCCn1nnnc1C(C(C)C)N(Cc1cccnc1)Cc1ccccc1Cl (stereo unspecified)		inactive: -7.95%
Cc1ccc(Cn2c(=O)c3cccnc3n(CC(=O)Nc3cccc(C(F)(F)F)c3)c2=O)cc1	inconclusive: 18.4 µM [activator, single point]	
O=C(NCc1ccccc1)Nc1cccn(Cc2c(F)cccc2Cl)c1=O	inconclusive: 20.6 µM [activator, single point]	
Cn1nc(-c2ccccc2)cc1NC(=O)c1ccc(Cl)cc1		inactive: -3.74%
COc1cccc(/C=N/Nc2cc(C)nc(-c3ccccc3O)n2)c1O	inconclusive: 4.61 µM [activator, full curve]	
CC(C)(C)c1cc(C(=O)Nc2cccnc2)cc(C(=O)Nc2cccnc2)c1		inactive: -11%
CCCCN(C(=O)c1cc(=O)[nH]c2ccccc12)c1c(N)n(CCC)c(=O)[nH]c1=O		inactive: 31.4%
COc1ccc(N(CC(=O)NC2CCCC2)C(=O)Cn2nnc(-c3ccc(F)cc3)n2)cc1OC		inactive: -0.767%
Cc1ccc(-c2nc(N3CCOCC3)sc2C(=O)N2CCCCC2)cc1	inconclusive: 29.1 µM [activator, single point]	
COc1ccc(-c2noc(N3CCC(C(=O)NC(C)c4ccccc4)CC3)n2)cc1 (stereo unspecified)		inactive: -1.42%
CCOC(=O)c1nc(C)nc(Sc2n[nH]c(-c3cc(Cl)cc(Cl)c3)n2)c1C	inconclusive: 29.1 µM [activator, single point]	
CC(=O)NC(Cc1cccc(F)c1)C(=O)NC1CCN(c2ncccc2[N+](=O)[O-])CC1 (stereo unspecified)		inactive: -8.99%

Reprinted from the results shown (4 entries):
Compound	Potency	re-replication activation
Cc1ccc(-c2nc(N3CCOCC3)sc2C(=O)N2CCCCC2)cc1	inconclusive: 29.1 µM [activator, single point]	
COc1ccc(-c2noc(N3CCC(C(=O)NC(C)c4ccccc4)CC3)n2)cc1 (stereo unspecified)		inactive: -1.42%
CCOC(=O)c1nc(C)nc(Sc2n[nH]c(-c3cc(Cl)cc(Cl)c3)n2)c1C	inconclusive: 29.1 µM [activator, single point]	
CC(=O)NC(Cc1cccc(F)c1)C(=O)NC1CCN(c2ncccc2[N+](=O)[O-])CC1 (stereo unspecified)		inactive: -8.99%
